Assay results as given in article PMC6208778, “eIF2A, an initiator tRNA carrier refractory to eIF2α kinases, functions synergistically with eIF5B” (Cellular and Molecular Life Sciences: CMLS, 2018).

How the values were obtained:
Assay in all cases: pull-down; GST pull-down: His–eIF2A (2 nM) with GST–eIF5B derivatives (2 nM each), 4 °C, 1 h, binding buffer (0.2% NP-40, 40 mM HEPES–KOH pH 7.5, 100 mM KCl, 1 mM EDTA, 2.5% BSA); Glutathione Sepharose 4B resin; western blotting with anti-His and anti-GST; both purified
GST–eIF5B domain IV = biological target: GST–eIF5B domain IV
[1] = biological target: GST–eIF5B domains G + II + III + IV
[2] = biological target: GST–eIF5B domains II + III
[3] = biological target: GST–eIF5B domains III + IV
GST–eIF5B domain III = biological target: GST–eIF5B domain III

B1: His-tagged eIF2A (natural protein, human, UniProt Q9BY44 1-585, looked up)
chain: MAPSTPLLTVRGSEGLYMVNGPPHFTESTVFPRESGKNCKVCIFSKDGTLFAWGNGEKVNIISVTNKGLLHSFDLLKAVCLEFSPKNTVLATWQPYTTSKDGTAGIPNLQLYDVKTGTCLKSFIQKKMQNWCPSWSEDETLCARNVNNEVHFFENNNFNTIANKLHLQKINDFVLSPGPQPYKVAVYVPGSKGAPSFVRLYQYPNFAGPHAALANKSFFKADKVTMLWNKKATAVLVIASTDVDKTGASYYGEQTLHYIATNGESAVVQLPKNGPIYDVVWNSSSTEFCAVYGFMPAKATIFNLKCDPVFDFGTGPRNAAYYSPHGHILVLAGFGNLRGQMEVWDVKNYKLISKPVASDSTYFAWCPDGEHILTATCAPRLRVNNGYKIWHYTGSILHKYDVPSNAELWQVSWQPFLDGIFPAKTITYQAVPSEVPNEEPKVATAYRPPALRNKPITNSKLHEEEPPQNMKPQSGNDKPLSKTALKNQRKHEAKKAAKQEARSDKSPDLAPTPAPQSTPRNTVSQSISGDPEIDKKIKNLKKKLKAIEQLKEQAATGKQLEKNQLEKIQKETALLQELEDLELGI
notes: eukaryotic initiation factor 2A (eIF2A); also called His–eIF2A; eukaryotic initiation factor 2A; source: E. coli M15 (plasmid pQE31/His–eIF2A), purified
B1 was tested, and the binding (GST–eIF5B domain IV) was “binds weakly”, the binding [1] was “binds” and the binding [2] was “no binding (tested: 2 nM)”. The binding [3] was “binds weakly” and the binding (GST–eIF5B domain III) was “no binding (tested: 2 nM)”.

Results are given in words; binding and its absence hold for the method and conditions named. For some assays here: A result given as binding can be weak or reduced; the word gives no strength. Tags and fused reporters may be left off the sequences shown.
